Compound in the assay: CCc1cnccc1C(=O)Nc1cc2c(cc1F)NC(=O)CC2
As to the kind of experiment: melting temperature shift (DMSO Tm minus MBE1-treated Tm) in cellular thermal proteome profiling; higher = less thermal stabilization by MBE1 (negative = stabilized by MBE1). As to conditions: A375.

Amino acid sequences for entries named in this document (tags omitted). A change or cut given only in a name is not applied to a line headed by its entry.
UniProt Q9NWY4: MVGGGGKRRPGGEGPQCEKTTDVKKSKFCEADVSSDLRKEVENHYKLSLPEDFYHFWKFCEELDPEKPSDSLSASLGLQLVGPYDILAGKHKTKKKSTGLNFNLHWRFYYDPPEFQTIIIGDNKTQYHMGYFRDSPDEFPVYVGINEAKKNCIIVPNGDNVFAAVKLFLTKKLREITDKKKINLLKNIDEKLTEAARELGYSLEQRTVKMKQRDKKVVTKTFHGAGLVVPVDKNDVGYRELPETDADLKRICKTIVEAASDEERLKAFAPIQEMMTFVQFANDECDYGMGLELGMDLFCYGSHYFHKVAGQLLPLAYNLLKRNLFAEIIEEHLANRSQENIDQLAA
UniProt Q9P2R3: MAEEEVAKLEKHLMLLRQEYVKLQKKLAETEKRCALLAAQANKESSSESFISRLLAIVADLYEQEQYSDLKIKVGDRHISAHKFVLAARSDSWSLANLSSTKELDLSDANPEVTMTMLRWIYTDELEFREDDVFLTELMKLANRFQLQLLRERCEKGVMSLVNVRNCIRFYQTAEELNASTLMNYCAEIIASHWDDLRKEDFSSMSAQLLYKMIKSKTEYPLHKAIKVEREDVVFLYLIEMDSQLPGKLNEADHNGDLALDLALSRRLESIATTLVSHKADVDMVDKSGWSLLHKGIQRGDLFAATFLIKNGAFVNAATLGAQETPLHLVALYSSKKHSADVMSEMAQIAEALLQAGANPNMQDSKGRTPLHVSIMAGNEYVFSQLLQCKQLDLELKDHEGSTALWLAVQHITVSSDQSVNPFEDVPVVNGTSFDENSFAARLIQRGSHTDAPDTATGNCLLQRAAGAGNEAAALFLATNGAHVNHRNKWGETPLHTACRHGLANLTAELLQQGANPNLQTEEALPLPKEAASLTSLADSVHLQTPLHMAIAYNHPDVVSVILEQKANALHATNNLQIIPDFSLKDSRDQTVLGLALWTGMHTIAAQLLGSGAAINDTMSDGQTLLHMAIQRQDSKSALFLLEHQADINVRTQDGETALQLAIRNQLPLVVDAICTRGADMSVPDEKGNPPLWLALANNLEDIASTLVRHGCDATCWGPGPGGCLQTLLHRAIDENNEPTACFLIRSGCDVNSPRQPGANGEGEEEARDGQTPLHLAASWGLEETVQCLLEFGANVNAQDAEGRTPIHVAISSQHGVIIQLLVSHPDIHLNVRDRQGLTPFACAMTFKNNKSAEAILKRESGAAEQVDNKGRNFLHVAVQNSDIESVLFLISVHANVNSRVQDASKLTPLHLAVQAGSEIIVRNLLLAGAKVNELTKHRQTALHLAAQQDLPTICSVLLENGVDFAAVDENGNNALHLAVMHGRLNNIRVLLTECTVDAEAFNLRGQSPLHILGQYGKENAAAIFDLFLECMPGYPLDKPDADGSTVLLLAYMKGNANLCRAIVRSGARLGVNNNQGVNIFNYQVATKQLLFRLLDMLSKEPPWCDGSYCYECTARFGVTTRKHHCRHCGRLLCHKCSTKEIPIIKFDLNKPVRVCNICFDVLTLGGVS
UniProt Q9P275: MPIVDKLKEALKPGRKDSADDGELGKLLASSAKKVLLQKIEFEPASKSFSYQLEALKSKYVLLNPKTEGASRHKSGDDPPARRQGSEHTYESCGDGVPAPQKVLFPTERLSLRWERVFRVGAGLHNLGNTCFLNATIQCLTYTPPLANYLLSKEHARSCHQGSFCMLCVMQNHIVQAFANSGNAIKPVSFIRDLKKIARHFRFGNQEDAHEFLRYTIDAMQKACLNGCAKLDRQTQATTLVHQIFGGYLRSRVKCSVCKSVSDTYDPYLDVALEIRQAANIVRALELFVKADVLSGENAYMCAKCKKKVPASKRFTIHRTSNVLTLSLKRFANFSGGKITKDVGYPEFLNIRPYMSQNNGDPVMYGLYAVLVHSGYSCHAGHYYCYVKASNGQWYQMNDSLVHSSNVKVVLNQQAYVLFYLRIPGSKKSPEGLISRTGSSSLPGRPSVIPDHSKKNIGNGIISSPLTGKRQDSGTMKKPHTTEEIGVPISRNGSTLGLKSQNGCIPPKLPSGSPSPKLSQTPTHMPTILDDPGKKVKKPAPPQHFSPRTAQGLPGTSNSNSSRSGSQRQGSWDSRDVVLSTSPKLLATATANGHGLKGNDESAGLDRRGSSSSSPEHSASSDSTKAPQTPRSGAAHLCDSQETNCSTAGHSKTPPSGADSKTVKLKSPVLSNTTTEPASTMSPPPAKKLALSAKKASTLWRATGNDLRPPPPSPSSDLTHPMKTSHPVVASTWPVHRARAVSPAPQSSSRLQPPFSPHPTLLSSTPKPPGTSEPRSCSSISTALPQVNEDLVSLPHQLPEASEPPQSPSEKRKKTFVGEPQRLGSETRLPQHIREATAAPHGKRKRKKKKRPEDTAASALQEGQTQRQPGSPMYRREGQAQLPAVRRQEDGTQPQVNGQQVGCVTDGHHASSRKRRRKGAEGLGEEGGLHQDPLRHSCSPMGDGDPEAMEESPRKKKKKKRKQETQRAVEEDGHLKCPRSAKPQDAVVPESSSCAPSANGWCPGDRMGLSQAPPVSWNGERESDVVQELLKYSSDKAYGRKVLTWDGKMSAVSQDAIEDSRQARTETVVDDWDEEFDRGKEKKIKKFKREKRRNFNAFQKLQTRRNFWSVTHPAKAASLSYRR
UniProt Q9UFG5: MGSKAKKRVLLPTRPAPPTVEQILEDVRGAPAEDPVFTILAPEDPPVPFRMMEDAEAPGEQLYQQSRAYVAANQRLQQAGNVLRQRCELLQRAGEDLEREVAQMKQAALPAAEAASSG
UniProt Q9NX08, whole entry: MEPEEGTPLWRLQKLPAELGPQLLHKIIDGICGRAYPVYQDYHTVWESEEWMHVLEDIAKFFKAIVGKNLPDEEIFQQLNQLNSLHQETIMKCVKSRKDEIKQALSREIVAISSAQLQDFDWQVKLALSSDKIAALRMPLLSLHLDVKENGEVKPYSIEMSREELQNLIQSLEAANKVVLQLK
UniProt Q9NWV4: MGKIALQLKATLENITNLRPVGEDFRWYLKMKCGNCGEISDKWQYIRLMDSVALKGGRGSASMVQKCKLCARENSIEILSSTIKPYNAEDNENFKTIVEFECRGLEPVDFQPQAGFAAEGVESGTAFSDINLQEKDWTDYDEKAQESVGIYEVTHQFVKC
UniProt Q9UDR5: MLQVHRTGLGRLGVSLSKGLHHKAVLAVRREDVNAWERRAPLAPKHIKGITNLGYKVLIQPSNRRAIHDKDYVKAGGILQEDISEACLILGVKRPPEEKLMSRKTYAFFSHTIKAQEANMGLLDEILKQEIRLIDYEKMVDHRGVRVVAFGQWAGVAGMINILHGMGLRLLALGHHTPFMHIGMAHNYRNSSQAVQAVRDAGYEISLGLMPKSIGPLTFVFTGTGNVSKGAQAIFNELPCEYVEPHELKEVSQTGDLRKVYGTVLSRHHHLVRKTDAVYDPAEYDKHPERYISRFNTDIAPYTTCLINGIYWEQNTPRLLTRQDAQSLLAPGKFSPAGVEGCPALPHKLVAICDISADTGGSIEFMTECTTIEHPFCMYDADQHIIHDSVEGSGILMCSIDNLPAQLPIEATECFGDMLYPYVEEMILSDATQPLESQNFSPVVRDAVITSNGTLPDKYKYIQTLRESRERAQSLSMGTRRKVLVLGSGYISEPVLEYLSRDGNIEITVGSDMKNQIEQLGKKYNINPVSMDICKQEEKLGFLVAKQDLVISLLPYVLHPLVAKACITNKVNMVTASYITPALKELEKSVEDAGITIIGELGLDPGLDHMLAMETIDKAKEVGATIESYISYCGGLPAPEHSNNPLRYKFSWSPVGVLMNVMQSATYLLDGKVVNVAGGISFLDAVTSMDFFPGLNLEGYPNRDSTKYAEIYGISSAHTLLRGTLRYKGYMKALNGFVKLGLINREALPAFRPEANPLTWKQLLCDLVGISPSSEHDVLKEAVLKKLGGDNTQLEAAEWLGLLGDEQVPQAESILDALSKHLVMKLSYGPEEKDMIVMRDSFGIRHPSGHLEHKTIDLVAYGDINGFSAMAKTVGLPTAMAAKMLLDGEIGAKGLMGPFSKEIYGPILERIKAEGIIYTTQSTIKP
UniProt Q9NXR7, whole entry: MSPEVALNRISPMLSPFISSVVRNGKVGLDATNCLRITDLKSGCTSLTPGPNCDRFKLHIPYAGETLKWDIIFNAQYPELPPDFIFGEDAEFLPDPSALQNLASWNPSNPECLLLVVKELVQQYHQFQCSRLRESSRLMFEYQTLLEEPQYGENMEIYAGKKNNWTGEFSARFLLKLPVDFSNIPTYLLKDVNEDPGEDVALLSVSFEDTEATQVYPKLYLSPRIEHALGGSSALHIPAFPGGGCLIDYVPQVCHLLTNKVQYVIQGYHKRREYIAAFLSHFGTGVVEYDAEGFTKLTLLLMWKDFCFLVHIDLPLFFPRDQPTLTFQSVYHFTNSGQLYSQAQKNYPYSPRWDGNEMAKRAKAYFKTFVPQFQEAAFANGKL
UniProt Q9P2Q2: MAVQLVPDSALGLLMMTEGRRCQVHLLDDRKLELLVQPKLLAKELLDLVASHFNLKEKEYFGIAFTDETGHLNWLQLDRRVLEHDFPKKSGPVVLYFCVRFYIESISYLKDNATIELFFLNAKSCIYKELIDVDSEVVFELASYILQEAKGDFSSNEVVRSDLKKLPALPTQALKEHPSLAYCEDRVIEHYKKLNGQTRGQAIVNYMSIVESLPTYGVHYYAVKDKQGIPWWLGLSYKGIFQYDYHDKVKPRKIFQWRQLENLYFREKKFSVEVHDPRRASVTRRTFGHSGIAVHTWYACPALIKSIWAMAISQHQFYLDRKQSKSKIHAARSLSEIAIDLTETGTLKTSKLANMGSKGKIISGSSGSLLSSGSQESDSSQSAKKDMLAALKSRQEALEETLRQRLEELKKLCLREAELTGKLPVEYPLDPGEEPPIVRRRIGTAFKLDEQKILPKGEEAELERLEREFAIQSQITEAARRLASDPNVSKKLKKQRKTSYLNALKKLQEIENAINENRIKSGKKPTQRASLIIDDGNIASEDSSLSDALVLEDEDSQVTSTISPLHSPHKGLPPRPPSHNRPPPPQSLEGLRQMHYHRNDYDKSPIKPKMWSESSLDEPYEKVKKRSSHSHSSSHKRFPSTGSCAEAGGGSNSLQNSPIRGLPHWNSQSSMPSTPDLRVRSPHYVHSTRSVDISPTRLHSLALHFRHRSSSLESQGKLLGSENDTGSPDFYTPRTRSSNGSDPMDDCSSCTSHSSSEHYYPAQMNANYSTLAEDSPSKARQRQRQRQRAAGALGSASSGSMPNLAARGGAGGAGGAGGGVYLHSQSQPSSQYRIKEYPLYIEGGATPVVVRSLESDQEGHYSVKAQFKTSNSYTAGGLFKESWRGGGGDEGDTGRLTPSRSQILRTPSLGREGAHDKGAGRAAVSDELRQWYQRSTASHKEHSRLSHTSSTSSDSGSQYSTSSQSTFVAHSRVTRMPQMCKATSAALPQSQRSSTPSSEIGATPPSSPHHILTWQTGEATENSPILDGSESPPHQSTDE
UniProt Q9P035: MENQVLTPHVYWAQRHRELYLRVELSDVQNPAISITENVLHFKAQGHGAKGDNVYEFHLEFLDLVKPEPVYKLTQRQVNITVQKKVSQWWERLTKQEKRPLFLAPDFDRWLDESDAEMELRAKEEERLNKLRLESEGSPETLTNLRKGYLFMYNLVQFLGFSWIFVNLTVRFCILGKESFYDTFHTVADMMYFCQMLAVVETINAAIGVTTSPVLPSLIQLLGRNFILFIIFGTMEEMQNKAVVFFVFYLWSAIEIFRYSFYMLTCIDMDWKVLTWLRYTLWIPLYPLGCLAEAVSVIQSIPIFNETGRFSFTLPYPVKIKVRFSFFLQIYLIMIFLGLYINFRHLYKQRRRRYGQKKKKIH
UniProt Q9UBK8: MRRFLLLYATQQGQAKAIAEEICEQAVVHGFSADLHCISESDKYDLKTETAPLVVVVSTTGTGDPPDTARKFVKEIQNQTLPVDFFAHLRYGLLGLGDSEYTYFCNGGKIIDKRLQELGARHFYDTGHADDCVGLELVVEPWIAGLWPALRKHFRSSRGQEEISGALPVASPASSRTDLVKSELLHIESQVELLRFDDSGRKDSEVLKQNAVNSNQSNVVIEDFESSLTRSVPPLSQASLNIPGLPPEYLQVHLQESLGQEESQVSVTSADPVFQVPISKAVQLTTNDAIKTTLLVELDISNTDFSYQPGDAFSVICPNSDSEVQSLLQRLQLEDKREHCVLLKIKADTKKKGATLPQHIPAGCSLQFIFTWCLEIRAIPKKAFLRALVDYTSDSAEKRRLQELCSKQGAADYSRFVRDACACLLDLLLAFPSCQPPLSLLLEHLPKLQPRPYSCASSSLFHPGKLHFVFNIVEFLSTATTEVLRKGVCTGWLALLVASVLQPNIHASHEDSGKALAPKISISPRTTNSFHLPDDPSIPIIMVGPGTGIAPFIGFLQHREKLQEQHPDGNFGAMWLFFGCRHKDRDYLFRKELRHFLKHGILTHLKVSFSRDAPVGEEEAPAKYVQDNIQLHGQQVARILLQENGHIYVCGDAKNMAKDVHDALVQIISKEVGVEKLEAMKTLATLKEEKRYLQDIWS

We go through 67 targets from the supplement of paper PMC12595434, “Development of retinoid nuclear receptor pathway antagonists through targeting aldehyde dehydrogenase 1A3” (iScience, 2025).

This is one part of the list. This is a noisy data set.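 Many melting curves are irregular; where none melted, Tm was taken as 64 °C.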

As to RCOR3 (UniProt Q9P2K3), the melting temperature shift was -0.541 °C (MBE1 concentration: 100 nM) and -0.807 °C (MBE1 concentration: 1 uM).
Taken in the same sequence, the figures for RBM22 (UniProt Q9NW64) were 0.434 °C and -0.263 °C.
In the case of UniProt Q9NWY4, the melting temperature shift reads like this: (MBE1 concentration: 100 nM) 0.0705 °C; (MBE1 concentration: 1 uM) 0.0961 °C.
Taken in the same sequence, the figures for UniProt Q9NXF1 were -2.55 °C and -4.4 °C.
Turning to UniProt Q9NXF7, the melting temperature shift reads like this: (MBE1 concentration: 100 nM) -0.884 °C; (MBE1 concentration: 1 uM) -0.783 °C.
For METTL1 (UniProt Q9UBP6) the same measures were -0.436 °C and 0.423 °C.
For the target ANKFY1 (UniProt Q9P2R3), the melting temperature shift by setting is: (MBE1 concentration: 100 nM) 0.047 °C; (MBE1 concentration: 1 uM) 0.221 °C.
For SUCLA2 (UniProt Q9P2R7), the melting temperature shift by setting is: (MBE1 concentration: 100 nM) 0.269 °C; (MBE1 concentration: 1 uM) -0.458 °C.
Regarding VAPA (UniProt Q9P0L0), the melting temperature shift is -1.05 °C (MBE1 concentration: 100 nM) and 0.324 °C (MBE1 concentration: 1 uM).
Taken in the same sequence, the figures for DNAJB4 (UniProt Q9UDY4) were -1.06 °C and -0.0672 °C.
Taken in the same sequence, the figures for USE1 (UniProt Q9NZ43) were 0.22 °C and -1.18 °C.
On to FAM120C (UniProt Q9NX05), for which the melting temperature shift was found to be 0.916 °C (MBE1 concentration: 100 nM) and 0.525 °C (MBE1 concentration: 1 uM).
For the target MTPAP (UniProt Q9NVV4), the melting temperature shift reads like this: (MBE1 concentration: 100 nM) -0.16 °C; (MBE1 concentration: 1 uM) -0.98 °C.
For the target USP36 (UniProt Q9P275), the melting temperature shift reads like this: (MBE1 concentration: 100 nM) -0.772 °C; (MBE1 concentration: 1 uM) -0.621 °C.
Taken in the same sequence, the figures for UniProt Q9UFG5 were -2.24 °C and -5.56 °C.
Taken in the same sequence, the figures for SMPD4 (UniProt Q9NXE4) were 1.92 °C and 0.824 °C.
For FKBP14 (UniProt Q9NWM8) the same measures were -0.926 °C and 1.79 °C.
On to PEF1 (UniProt Q9UBV8), for which the melting temperature shift is -0.0335 °C (MBE1 concentration: 100 nM) and -0.174 °C (MBE1 concentration: 1 uM).
SPG21 (UniProt Q9NZD8): the melting temperature shift (MBE1 concentration: 100 nM) was 0.202 °C and the melting temperature shift (MBE1 concentration: 1 uM) is -0.641 °C.
For UBAP1 (UniProt Q9NZ09), the melting temperature shift by setting is: (MBE1 concentration: 100 nM) -0.208 °C; (MBE1 concentration: 1 uM) -0.00611 °C.
Taken in the same sequence, the figures for CNOT2 (UniProt Q9NZN8) were -0.21 °C and 0.108 °C.
Taken in the same sequence, the figures for DNAJC17 (UniProt Q9NVM6) were 0.812 °C and 0.256 °C.
For UniProt Q9NZM4 the same measures were 0.032 °C and 0.372 °C.
On to IMPAD1 (UniProt Q9NX62), for which the melting temperature shift runs as follows: (MBE1 concentration: 100 nM) -2.2 °C; (MBE1 concentration: 1 uM) -1.6 °C.
Taken in the same sequence, the figures for CHMP5 (UniProt Q9NZZ3) were -4.17 °C and -4.39 °C.
Taken in the same sequence, the figures for MTCH1 (UniProt Q9NZJ7) were 0.335 °C and 0.161 °C.
Consider NDE1 (UniProt Q9NXR1), for which the melting temperature shift by setting is: (MBE1 concentration: 100 nM) -1.97 °C; (MBE1 concentration: 1 uM) -0.321 °C.
In the case of UniProt Q9NX08, the melting temperature shift runs as follows: (MBE1 concentration: 100 nM) 1.4 °C; (MBE1 concentration: 1 uM) 0.623 °C.
C1ORF123 (UniProt Q9NWV4): the melting temperature shift is 0.194 °C (MBE1 concentration: 100 nM) and 0.161 °C (MBE1 concentration: 1 uM).
For UniProt Q9UDR5 the same measures were 0.721 °C and 0.714 °C.
For UniProt Q9P2L0 the same measures were -0.536 °C and -0.447 °C.
As for UniProt Q9UFF9, the melting temperature shift came to 0.136 °C (MBE1 concentration: 100 nM) and 0 °C (MBE1 concentration: 1 uM).
Turning to ASH2L (UniProt Q9UBL3), the melting temperature shift worked out at 0.818 °C (MBE1 concentration: 100 nM) and 0.208 °C (MBE1 concentration: 1 uM).
MORF4L1 (UniProt Q9UBU8): the melting temperature shift runs as follows: (MBE1 concentration: 100 nM) 1.49 °C; (MBE1 concentration: 1 uM) 0.983 °C.
For BSDC1 (UniProt Q9NW68) the same measures were -1.09 °C and -0.174 °C.
For STIM2 (UniProt Q9P246) the same measures were -0.753 °C and -0.212 °C.
Taken in the same sequence, the figures for TJP2 (UniProt Q9UDY2) were -0.626 °C and -1.03 °C.
For CHPF2 (UniProt Q9P2E5), the melting temperature shift by setting is: (MBE1 concentration: 100 nM) -0.371 °C; (MBE1 concentration: 1 uM) 0.256 °C.
As for UniProt Q9NWA0, the melting temperature shift reads like this: (MBE1 concentration: 100 nM) -1.35 °C; (MBE1 concentration: 1 uM) -4.05 °C.
As for UniProt Q9UBK7, the melting temperature shift reads like this: (MBE1 concentration: 100 nM) 0.4 °C; (MBE1 concentration: 1 uM) -0.843 °C.
Taken in the same sequence, the figures for GLTSCR2 (UniProt Q9NZM5) were -1.76 °C and -0.496 °C.
Regarding NHP2 (UniProt Q9NX24), the melting temperature shift (MBE1 concentration: 100 nM) was 1.04 °C and the melting temperature shift (MBE1 concentration: 1 uM) stood at 1.7 °C.
In the case of ORC3 (UniProt Q9UBD5), the melting temperature shift by setting is: (MBE1 concentration: 100 nM) -0.327 °C; (MBE1 concentration: 1 uM) -0.186 °C.
Consider UniProt Q9P2G1, for which the melting temperature shift was -0.999 °C (MBE1 concentration: 100 nM) and -0.348 °C (MBE1 concentration: 1 uM).
Taken in the same sequence, the figures for UniProt Q9NWM3 were -2.43 °C and -0.337 °C.
For BRE (UniProt Q9NXR7) the same measures were -1.02 °C and 0.531 °C.
Taken in the same sequence, the figures for UBA2 (UniProt Q9UBT2) were -0.585 °C and 0.0611 °C.
Turning to UniProt Q9NVR2, the melting temperature shift runs as follows: (MBE1 concentration: 100 nM) 0.721 °C; (MBE1 concentration: 1 uM) 0.562 °C.
For UniProt Q9P2M7 the same measures were -1.75 °C and -0.624 °C.
Taken in the same sequence, the figures for UVRAG (UniProt Q9P2Y5) were -0.43 °C and 0.263 °C.
For MYOF (UniProt Q9NZM1), the melting temperature shift runs as follows: (MBE1 concentration: 100 nM) -0.617 °C; (MBE1 concentration: 1 uM) 0.0738 °C.
For GID8 (UniProt Q9NWU2), the melting temperature shift (MBE1 concentration: 100 nM) was found to be 1.31 °C and the melting temperature shift (MBE1 concentration: 1 uM) stood at 0.336 °C.
For UniProt Q9P289, the melting temperature shift by setting is: (MBE1 concentration: 100 nM) 0.736 °C; (MBE1 concentration: 1 uM) -0.0916 °C.
As for HYPK (UniProt Q9NX55), the melting temperature shift (MBE1 concentration: 100 nM) is -2.89 °C and the melting temperature shift (MBE1 concentration: 1 uM) is -0.0855 °C.
For the target GGA3 (UniProt Q9NZ52), the melting temperature shift is 0.0244 °C (MBE1 concentration: 100 nM) and -0.855 °C (MBE1 concentration: 1 uM).
Turning to UniProt Q9UBS9, the melting temperature shift runs as follows: (MBE1 concentration: 100 nM) 0.116 °C; (MBE1 concentration: 1 uM) 0.765 °C.
With NDUFAF4 (UniProt Q9P032), the melting temperature shift (MBE1 concentration: 100 nM) was -0.671 °C and the melting temperature shift (MBE1 concentration: 1 uM) came to 0.531 °C.
With POLR3B (UniProt Q9NW08), the melting temperature shift (MBE1 concentration: 100 nM) was -1.2 °C and the melting temperature shift (MBE1 concentration: 1 uM) was -0.454 °C.
Taken in the same sequence, the figures for THG1L (UniProt Q9NWX6) were -1.68 °C and 11.5 °C.
Taken in the same sequence, the figures for UniProt Q9P2Q2 were 1.95 °C and 1.6 °C.
For HACD3 (UniProt Q9P035) the same measures were -0.828 °C and 0.241 °C.
As to C9ORF78 (UniProt Q9NZ63), the melting temperature shift (MBE1 concentration: 100 nM) is -1.62 °C and the melting temperature shift (MBE1 concentration: 1 uM) came to 1.76 °C.
As to MTRR (UniProt Q9UBK8), the melting temperature shift was 0.379 °C (MBE1 concentration: 100 nM) and -0.824 °C (MBE1 concentration: 1 uM).
On to MRPL22 (UniProt Q9NWU5), for which the melting temperature shift by setting is: (MBE1 concentration: 100 nM) -3.48 °C; (MBE1 concentration: 1 uM) -3.82 °C.
Taken in the same sequence, the figures for FASTKD2 (UniProt Q9NYY8) were 1.15 °C and 0.672 °C.
For GTSE1 (UniProt Q9NYZ3) the same measures were -4.84 °C and 5.95 °C.
For UniProt Q9UBX3, the melting temperature shift was -0.458 °C (MBE1 concentration: 100 nM) and 0.14 °C (MBE1 concentration: 1 uM).
